# Measurements taken from the supplement of paper PMC8728848.
# This is one part of the list.
# B1: PX15642A-pgi-501-20-501 (Parabacteroides gingivalis) (protein)
# chain: CELDRDPEGKDFQQPYTSFVQTKQNRDGLYALLRNTENPRMHFYQELQSDMYCTTITDGNSLAPFVNWDLGILNDHGRADEDEVSGIAGYYFVYNRLNQQANAFVNNTEAALQNQVYKNSTEIANAKSFLAEGKVLQALAIWRLMDRFSFHESVTEVNSGAKDLGVILLKEYNPGYIGPRATKAQCYDYILSRLSEAIEVLPENRESVLYVSRDYAYALRARIYLALGEYGKAAADAKMVVDKYPLIGAADASEFENIYRSDANNPEIIFRGFASATLGSFTATTLNGAAPAGKDIKYNPSAVPFQWVVDLYENEDFRKSVYIAKVVKKDKGYLVNKFLEDKAYRDVQDKPNLKVGARYFSVAEVYLILVESALQTGDTPTAEKYLKALSKARGAEVSVVNMEALQAERTRELIGEGSRLRDMVRWSIPNNHDAFETQPGLEGFANTTPLKAQAPVGFYAYTWEFPQRDRQTNPQLIKNWPI
# Key:
# Assay in all cases: glycan array binding signal (z-score within array); higher = stronger binding
# Settings in all cases: glycan notation: IUPAC condensed, linker removed
# [1] = biological target: Gal(b1-4)GlcNAc(b1-3)Gal(b1-4)GlcNAc(b1-2)[Gal(b1-4)GlcNAc(b1-3)Gal(b1-4)GlcNAc(b1-6)]Man(a1-6)[Gal(b1-4)GlcNAc(b1-3)Gal(b1-4)GlcNAc(b1-2)Man(a1-3)]Man(b1-4)GlcNAc(b1-4)GlcNAc
# Method in brief: (§1)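 Negative Z-scores can be read as non-binding. The Z-score is calculated within each array and then averaged across arrays of one protein sequence at different concentrations or buffers and across linkers. Arrays, 3228 in all, were curated from the Consortium for Functional Glycomics database and kept only where the protein sequence was available.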
# [2] = biological target: Gal(b1-4)GlcNAc(b1-3)Gal(b1-4)GlcNAc(b1-2)[Gal(b1-4)GlcNAc(b1-3)Gal(b1-4)GlcNAc(b1-6)]Man(a1-6)[Gal(b1-4)GlcNAc(b1-3)Gal(b1-4)GlcNAc(b1-2)Man(a1-3)]Man(b1-4)GlcNAc(b1-4)[Fuc(a1-6)]GlcNAc
# Method in brief: as §1
# [3] = biological target: Gal(b1-4)GlcNAc(b1-3)Gal(b1-4)GlcNAc(b1-3)Gal(b1-4)GlcNAc
# Method in brief: as §1
# [4] = biological target: Gal(b1-4)GlcNAc(b1-3)Gal(b1-4)GlcNAc(b1-3)Gal(b1-4)GlcNAc(b1-2)Man(a1-3)[Gal(b1-4)GlcNAc(b1-3)Gal(b1-4)GlcNAc(b1-3)Gal(b1-4)GlcNAc(b1-2)Man(a1-6)]Man(b1-4)GlcNAc(b1-4)GlcNAc
# Method in brief: as §1
# [5] = biological target: Gal(b1-4)GlcNAc(b1-3)Gal(b1-4)GlcNAc(b1-3)Gal(b1-4)GlcNAc(b1-2)Man(a1-3)[Gal(b1-4)GlcNAc(b1-3)Gal(b1-4)GlcNAc(b1-3)Gal(b1-4)GlcNAc(b1-2)Man(a1-6)]Man(b1-4)GlcNAc(b1-4)[Fuc(a1-6)]GlcNAc
# Method in brief: as §1
# [6] = biological target: Gal(b1-4)GlcNAc(b1-3)Gal(b1-4)GlcNAc(b1-3)Gal(b1-4)GlcNAc(b1-2)[Gal(b1-4)GlcNAc(b1-3)Gal(b1-4)GlcNAc(b1-3)Gal(b1-4)GlcNAc(b1-6)]Man(a1-6)[Gal(b1-4)GlcNAc(b1-3)Gal(b1-4)GlcNAc(b1-3)Gal(b1-4)GlcNAc(b1-2)Man(a1-3)]Man(b1-4)GlcNAc(b1-4)[Fuc(a1-6)]GlcNAc
# Method in brief: as §1
# [7] = biological target: Gal(b1-4)GlcNAc(b1-3)Gal(b1-4)GlcNAc(b1-3)Gal(b1-4)GlcNAc(b1-3)Gal(b1-4)GlcNAc(b1-2)Man(a1-3)[Gal(b1-4)GlcNAc(b1-3)Gal(b1-4)GlcNAc(b1-3)Gal(b1-4)GlcNAc(b1-3)Gal(b1-4)GlcNAc(b1-2)Man(a1-6)]Man(b1-4)GlcNAc(b1-4)GlcNAc
# Method in brief: as §1
# [8] = biological target: Gal(b1-4)GlcNAc(b1-3)Gal(b1-4)GlcNAc(b1-3)Gal(b1-4)GlcNAc(b1-3)Gal(b1-4)GlcNAc(b1-2)Man(a1-3)[Gal(b1-4)GlcNAc(b1-3)Gal(b1-4)GlcNAc(b1-3)Gal(b1-4)GlcNAc(b1-3)Gal(b1-4)GlcNAc(b1-2)Man(a1-6)]Man(b1-4)GlcNAc(b1-4)[Fuc(a1-6)]GlcNAc
# Method in brief: as §1
# [9] = biological target: Gal(b1-4)GlcNAc(b1-3)Gal(b1-4)GlcNAc(b1-3)Gal(b1-4)GlcNAc(b1-3)Gal(b1-4)GlcNAc(b1-2)[Gal(b1-4)GlcNAc(b1-3)Gal(b1-4)GlcNAc(b1-3)Gal(b1-4)GlcNAc(b1-3)Gal(b1-4)GlcNAc(b1-6)]Man(a1-6)[Gal(b1-4)GlcNAc(b1-3)Gal(b1-4)GlcNAc(b1-3)Gal(b1-4)GlcNAc(b1-3)Gal(b1-4)GlcNAc(b1-2)Man(a1-3)]Man(b1-4)GlcNAc(b1-4)[Fuc(a1-6)]GlcNAc
# Method in brief: as §1
# [10] = biological target: Gal(b1-4)GlcNAc(b1-3)Gal(b1-4)GlcNAc(b1-3)Gal(b1-4)GlcNAc(b1-3)Gal(b1-4)GlcNAc(b1-3)Gal(b1-4)GlcNAc(b1-2)Man(a1-3)[Gal(b1-4)GlcNAc(b1-3)Gal(b1-4)GlcNAc(b1-3)Gal(b1-4)GlcNAc(b1-3)Gal(b1-4)GlcNAc(b1-3)Gal(b1-4)GlcNAc(b1-2)Man(a1-6)]Man(b1-4)GlcNAc(b1-4)GlcNAc
# Method in brief: as §1
# [11] = biological target: Gal(b1-4)GlcNAc(b1-3)Gal(b1-4)GlcNAc(b1-3)Gal(b1-4)GlcNAc(b1-3)Gal(b1-4)GlcNAc(b1-3)Gal(b1-4)GlcNAc(b1-2)Man(a1-3)[Gal(b1-4)GlcNAc(b1-3)Gal(b1-4)GlcNAc(b1-3)Gal(b1-4)GlcNAc(b1-3)Gal(b1-4)GlcNAc(b1-3)Gal(b1-4)GlcNAc(b1-2)Man(a1-6)]Man(b1-4)GlcNAc(b1-4)[Fuc(a1-6)]GlcNAc
# Method in brief: as §1
# [12] = biological target: Gal(b1-4)GlcNAc(b1-3)Gal(b1-4)GlcNAc(b1-3)Gal(b1-4)GlcNAc(b1-3)Gal(b1-4)GlcNAc(b1-3)Gal(b1-4)GlcNAc(b1-2)[Gal(b1-4)GlcNAc(b1-3)Gal(b1-4)GlcNAc(b1-3)Gal(b1-4)GlcNAc(b1-3)Gal(b1-4)GlcNAc(b1-3)Gal(b1-4)GlcNAc(b1-6)]Man(a1-6)[Gal(b1-4)GlcNAc(b1-3)Gal(b1-4)GlcNAc(b1-3)Gal(b1-4)GlcNAc(b1-3)Gal(b1-4)GlcNAc(b1-3)Gal(b1-4)GlcNAc(b1-2)Man(a1-3)]Man(b1-4)GlcNAc(b1-4)[Fuc(a1-6)]GlcNAc
# Method in brief: as §1
# [13] = biological target: Gal(b1-4)GlcNAc(b1-3)Gal(b1-4)GlcNAc(b1-3)Gal(b1-4)GlcNAc(b1-3)Gal(b1-4)GlcNAc(b1-3)Gal(b1-4)GlcNAc(b1-3)Gal(b1-4)GlcNAc(b1-2)Man(a1-3)[Gal(b1-4)GlcNAc(b1-3)Gal(b1-4)GlcNAc(b1-3)Gal(b1-4)GlcNAc(b1-3)Gal(b1-4)GlcNAc(b1-3)Gal(b1-4)GlcNAc(b1-3)Gal(b1-4)GlcNAc(b1-2)Man(a1-6)]Man(b1-4)GlcNAc(b1-4)GlcNAc
# Method in brief: as §1
# [14] = biological target: Gal(b1-4)GlcNAc(b1-3)Gal(b1-4)GlcNAc(b1-3)GalNAc
# Method in brief: as §1
# [15] = biological target: Gal(b1-4)GlcNAc(b1-3)Gal(b1-4)GlcNAc(b1-3)[Gal(b1-4)GlcNAc(b1-3)Gal(b1-4)GlcNAc(b1-6)]GalNAc
# Method in brief: as §1
# [16] = biological target: Gal(b1-4)GlcNAc(b1-3)Gal(b1-4)GlcNAc(b1-6)[Gal(b1-3)]GalNAc
# Method in brief: as §1
# [17] = biological target: Gal(b1-4)GlcNAc(b1-3)Gal(b1-4)[Fuc(a1-3)]GlcNAc(b1-3)Gal(b1-4)[Fuc(a1-3)]GlcNAc
# Method in brief: as §1
# [18] = biological target: Gal(b1-4)GlcNAc(b1-3)GalNAc
# Method in brief: as §1
# [19] = biological target: Gal(b1-4)GlcNAc(b1-3)[Fuc(a1-3)GlcNAc(b1-6)]Gal(b1-4)Glc
# Method in brief: as §1
# [20] = biological target: Gal(b1-4)GlcNAc(b1-3)[Gal(b1-4)GlcNAc(b1-6)]Gal(b1-4)GlcNAc
# Method in brief: as §1
# [21] = biological target: Gal(b1-4)GlcNAc(b1-3)[GlcNAc(b1-6)]Gal(b1-4)GlcNAc
# Method in brief: as §1
# [22] = biological target: Gal(b1-4)GlcNAc(b1-6)Gal(b1-4)GlcNAc
# Method in brief: as §1
# [23] = biological target: Gal(b1-4)GlcNAc(b1-6)GalNAc
# Method in brief: as §1
# [24] = biological target: Gal(b1-4)GlcNAc(b1-6)[Gal(b1-3)]GalNAc
# Method in brief: as §1
# [25] = biological target: Gal(b1-4)GlcNAc(b1-6)[Gal(b1-4)GlcNAc(b1-3)]GalNAc
# Method in brief: as §1
# Gal(b1-4)GlcNAc6P = biological target: Gal(b1-4)GlcNAc6P
# Method in brief: as §1
# Gal(b1-6)Gal = biological target: Gal(b1-6)Gal
# Method in brief: as §1
# Gal3S(b1-3)GalNAc = biological target: Gal3S(b1-3)GalNAc
# Method in brief: as §1
# Gal3S(b1-3)GlcNAc = biological target: Gal3S(b1-3)GlcNAc
# Method in brief: as §1
# [26] = biological target: Gal3S(b1-3)[Fuc(a1-4)]GlcNAc
# Method in brief: as §1
# Gal3S(b1-4)Glc = biological target: Gal3S(b1-4)Glc
# Method in brief: as §1
# Gal3S(b1-4)Glc6S = biological target: Gal3S(b1-4)Glc6S
# Method in brief: as §1
# Gal3S(b1-4)GlcNAc = biological target: Gal3S(b1-4)GlcNAc
# Method in brief: as §1
# [27] = biological target: Gal3S(b1-4)[Fuc(a1-3)]Glc6S
# Method in brief: as §1
# [28] = biological target: Gal3S(b1-4)[Fuc(a1-3)]GlcNAc
# Method in brief: as §1
# [29] = biological target: Gal3S(b1-4)[Fuc(a1-3)]GlcNAc6S
# Method in brief: as §1
# Gal3S4S(b1-4)GlcNAc = biological target: Gal3S4S(b1-4)GlcNAc
# Method in brief: as §1
binder,measurement,setting,value
B1,glycan array binding signal (z-score),[1],2.23
same,glycan array binding signal (z-score),[2],-0.473
same,glycan array binding signal (z-score),[3],-0.078
same,glycan array binding signal (z-score),[4],0.586
same,glycan array binding signal (z-score),[5],1.33
same,glycan array binding signal (z-score),[6],0.209
same,glycan array binding signal (z-score),[7],1.22
same,glycan array binding signal (z-score),[8],1.34
same,glycan array binding signal (z-score),[9],0.06
same,glycan array binding signal (z-score),[10],0.967
same,glycan array binding signal (z-score),[11],1.21
same,glycan array binding signal (z-score),[12],1.86
same,glycan array binding signal (z-score),[13],0.357
same,glycan array binding signal (z-score),[14],-0.65
same,glycan array binding signal (z-score),[15],0.622
same,glycan array binding signal (z-score),[16],2.71
same,glycan array binding signal (z-score),[17],-0.305
same,glycan array binding signal (z-score),[18],-0.504
same,glycan array binding signal (z-score),[19],0.044
same,glycan array binding signal (z-score),[20],-0.518
same,glycan array binding signal (z-score),[21],0.18
same,glycan array binding signal (z-score),[22],-0.968
same,glycan array binding signal (z-score),[23],0.273
same,glycan array binding signal (z-score),[24],0.642
same,glycan array binding signal (z-score),[25],0.257
same,glycan array binding signal (z-score),Gal(b1-4)GlcNAc6P,-0.285
same,glycan array binding signal (z-score),Gal(b1-6)Gal,-0.127
same,glycan array binding signal (z-score),Gal3S(b1-3)GalNAc,0.092
same,glycan array binding signal (z-score),Gal3S(b1-3)GlcNAc,0.258
same,glycan array binding signal (z-score),[26],-1.01
same,glycan array binding signal (z-score),Gal3S(b1-4)Glc,0.744
same,glycan array binding signal (z-score),Gal3S(b1-4)Glc6S,-0.055
same,glycan array binding signal (z-score),Gal3S(b1-4)GlcNAc,0.229
same,glycan array binding signal (z-score),[27],0.875
same,glycan array binding signal (z-score),[28],-0.713
same,glycan array binding signal (z-score),[29],0.301
same,glycan array binding signal (z-score),Gal3S4S(b1-4)GlcNAc,-0.041
